# The supplement of paper PMC12595434, “Development of retinoid nuclear receptor pathway antagonists through targeting aldehyde dehydrogenase 1A3” (iScience, 2025)
# Sequences of proteins named here, by UniProt entry; tags and fusion partners are left off. A change or cut given only in a name is not applied to a line headed by its entry.
# UniProt Q9GZY4: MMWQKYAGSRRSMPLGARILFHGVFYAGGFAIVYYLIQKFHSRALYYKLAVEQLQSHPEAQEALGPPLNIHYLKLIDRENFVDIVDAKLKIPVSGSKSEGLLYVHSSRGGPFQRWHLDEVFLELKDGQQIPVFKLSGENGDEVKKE
# UniProt Q9H7C9: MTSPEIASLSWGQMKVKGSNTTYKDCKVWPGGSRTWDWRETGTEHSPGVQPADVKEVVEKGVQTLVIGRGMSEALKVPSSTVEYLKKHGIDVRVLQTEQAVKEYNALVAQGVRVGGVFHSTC
# UniProt Q9H4I3: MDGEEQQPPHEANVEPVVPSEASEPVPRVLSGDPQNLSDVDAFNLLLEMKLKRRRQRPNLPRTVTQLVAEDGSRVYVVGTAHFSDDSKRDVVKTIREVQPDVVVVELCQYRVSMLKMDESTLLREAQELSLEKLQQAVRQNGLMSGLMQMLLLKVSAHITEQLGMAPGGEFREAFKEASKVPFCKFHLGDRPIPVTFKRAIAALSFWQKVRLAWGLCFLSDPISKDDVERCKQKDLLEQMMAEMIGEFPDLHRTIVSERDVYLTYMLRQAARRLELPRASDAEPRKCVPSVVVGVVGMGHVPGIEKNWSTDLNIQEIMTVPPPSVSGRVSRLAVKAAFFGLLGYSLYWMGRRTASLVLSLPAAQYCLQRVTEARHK
# UniProt Q9GZR1: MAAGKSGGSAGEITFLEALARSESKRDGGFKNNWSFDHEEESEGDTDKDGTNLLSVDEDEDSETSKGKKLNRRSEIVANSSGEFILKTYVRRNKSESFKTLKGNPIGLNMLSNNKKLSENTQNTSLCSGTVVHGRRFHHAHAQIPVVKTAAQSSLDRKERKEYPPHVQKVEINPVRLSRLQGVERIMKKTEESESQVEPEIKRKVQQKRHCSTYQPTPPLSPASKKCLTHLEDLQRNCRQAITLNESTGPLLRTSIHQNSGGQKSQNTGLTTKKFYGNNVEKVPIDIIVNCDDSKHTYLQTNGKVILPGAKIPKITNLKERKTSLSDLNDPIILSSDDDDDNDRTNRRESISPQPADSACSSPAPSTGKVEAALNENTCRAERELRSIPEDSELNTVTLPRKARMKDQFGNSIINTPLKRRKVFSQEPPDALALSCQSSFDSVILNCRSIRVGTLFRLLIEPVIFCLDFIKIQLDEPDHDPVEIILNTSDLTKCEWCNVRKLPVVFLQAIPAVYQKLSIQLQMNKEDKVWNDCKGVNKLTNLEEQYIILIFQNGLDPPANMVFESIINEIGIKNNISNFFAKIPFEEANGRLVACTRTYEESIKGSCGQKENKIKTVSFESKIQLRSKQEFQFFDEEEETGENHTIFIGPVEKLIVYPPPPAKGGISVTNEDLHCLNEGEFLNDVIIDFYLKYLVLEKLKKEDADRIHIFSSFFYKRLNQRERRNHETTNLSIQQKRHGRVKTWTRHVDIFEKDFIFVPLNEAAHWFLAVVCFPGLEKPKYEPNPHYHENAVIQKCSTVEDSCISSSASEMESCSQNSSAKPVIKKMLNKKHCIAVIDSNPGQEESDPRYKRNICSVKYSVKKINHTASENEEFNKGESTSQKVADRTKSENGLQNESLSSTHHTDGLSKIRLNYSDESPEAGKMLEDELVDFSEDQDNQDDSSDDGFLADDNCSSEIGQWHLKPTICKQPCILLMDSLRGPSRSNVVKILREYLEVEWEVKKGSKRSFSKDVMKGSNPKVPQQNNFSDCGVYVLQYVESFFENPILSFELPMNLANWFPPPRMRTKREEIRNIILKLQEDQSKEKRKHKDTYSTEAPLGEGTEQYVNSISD
# UniProt Q9H081: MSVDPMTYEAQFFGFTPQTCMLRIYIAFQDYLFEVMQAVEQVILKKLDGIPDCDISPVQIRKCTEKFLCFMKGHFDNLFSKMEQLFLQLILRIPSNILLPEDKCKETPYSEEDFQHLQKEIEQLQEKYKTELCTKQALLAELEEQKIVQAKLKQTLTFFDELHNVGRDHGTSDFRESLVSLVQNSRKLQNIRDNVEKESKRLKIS
# UniProt Q9BZF1: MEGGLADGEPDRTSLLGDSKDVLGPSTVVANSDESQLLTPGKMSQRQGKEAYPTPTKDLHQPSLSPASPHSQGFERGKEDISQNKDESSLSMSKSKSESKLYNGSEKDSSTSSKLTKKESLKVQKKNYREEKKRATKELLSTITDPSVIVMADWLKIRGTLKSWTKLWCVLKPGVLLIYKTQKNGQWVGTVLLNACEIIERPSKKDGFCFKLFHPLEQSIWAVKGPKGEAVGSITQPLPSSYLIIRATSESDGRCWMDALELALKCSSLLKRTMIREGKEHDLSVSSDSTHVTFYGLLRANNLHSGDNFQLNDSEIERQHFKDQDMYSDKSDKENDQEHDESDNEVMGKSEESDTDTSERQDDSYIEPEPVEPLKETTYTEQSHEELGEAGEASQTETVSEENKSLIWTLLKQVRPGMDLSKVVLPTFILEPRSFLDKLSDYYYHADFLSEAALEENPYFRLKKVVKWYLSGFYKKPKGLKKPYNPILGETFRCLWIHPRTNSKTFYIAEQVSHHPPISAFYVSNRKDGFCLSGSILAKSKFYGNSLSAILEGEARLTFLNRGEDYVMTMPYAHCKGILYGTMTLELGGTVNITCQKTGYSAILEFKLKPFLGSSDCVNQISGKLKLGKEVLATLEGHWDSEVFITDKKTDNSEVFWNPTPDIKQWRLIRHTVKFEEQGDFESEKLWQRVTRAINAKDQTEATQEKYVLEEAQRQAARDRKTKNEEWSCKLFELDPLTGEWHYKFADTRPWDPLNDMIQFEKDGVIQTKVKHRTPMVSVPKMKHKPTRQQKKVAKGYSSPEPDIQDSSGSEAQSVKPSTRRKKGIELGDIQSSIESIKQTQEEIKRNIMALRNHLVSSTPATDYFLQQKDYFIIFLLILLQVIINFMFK
# UniProt Q9BZG8: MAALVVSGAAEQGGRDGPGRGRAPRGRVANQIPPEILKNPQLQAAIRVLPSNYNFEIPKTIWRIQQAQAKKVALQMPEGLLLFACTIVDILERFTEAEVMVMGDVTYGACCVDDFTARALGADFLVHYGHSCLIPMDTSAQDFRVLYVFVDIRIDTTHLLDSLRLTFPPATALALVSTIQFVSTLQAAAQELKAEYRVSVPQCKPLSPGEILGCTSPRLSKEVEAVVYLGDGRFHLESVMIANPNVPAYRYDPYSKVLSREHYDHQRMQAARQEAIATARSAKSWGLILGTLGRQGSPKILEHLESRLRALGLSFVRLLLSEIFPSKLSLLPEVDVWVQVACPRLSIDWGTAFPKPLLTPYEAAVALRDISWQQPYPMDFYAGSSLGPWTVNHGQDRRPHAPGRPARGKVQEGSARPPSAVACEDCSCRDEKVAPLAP
# UniProt Q9H079: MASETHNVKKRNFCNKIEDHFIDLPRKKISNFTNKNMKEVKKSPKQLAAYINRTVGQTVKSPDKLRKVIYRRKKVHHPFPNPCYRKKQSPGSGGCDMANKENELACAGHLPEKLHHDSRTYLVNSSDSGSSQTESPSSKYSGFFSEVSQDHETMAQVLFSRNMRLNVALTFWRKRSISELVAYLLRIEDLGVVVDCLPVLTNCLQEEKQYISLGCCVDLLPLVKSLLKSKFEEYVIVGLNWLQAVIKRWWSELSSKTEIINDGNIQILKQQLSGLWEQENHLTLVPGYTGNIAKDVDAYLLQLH
# UniProt Q9H3K6: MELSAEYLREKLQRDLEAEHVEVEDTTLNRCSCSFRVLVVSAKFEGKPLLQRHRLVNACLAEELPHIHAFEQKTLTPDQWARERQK
# UniProt Q9H7D0, whole entry: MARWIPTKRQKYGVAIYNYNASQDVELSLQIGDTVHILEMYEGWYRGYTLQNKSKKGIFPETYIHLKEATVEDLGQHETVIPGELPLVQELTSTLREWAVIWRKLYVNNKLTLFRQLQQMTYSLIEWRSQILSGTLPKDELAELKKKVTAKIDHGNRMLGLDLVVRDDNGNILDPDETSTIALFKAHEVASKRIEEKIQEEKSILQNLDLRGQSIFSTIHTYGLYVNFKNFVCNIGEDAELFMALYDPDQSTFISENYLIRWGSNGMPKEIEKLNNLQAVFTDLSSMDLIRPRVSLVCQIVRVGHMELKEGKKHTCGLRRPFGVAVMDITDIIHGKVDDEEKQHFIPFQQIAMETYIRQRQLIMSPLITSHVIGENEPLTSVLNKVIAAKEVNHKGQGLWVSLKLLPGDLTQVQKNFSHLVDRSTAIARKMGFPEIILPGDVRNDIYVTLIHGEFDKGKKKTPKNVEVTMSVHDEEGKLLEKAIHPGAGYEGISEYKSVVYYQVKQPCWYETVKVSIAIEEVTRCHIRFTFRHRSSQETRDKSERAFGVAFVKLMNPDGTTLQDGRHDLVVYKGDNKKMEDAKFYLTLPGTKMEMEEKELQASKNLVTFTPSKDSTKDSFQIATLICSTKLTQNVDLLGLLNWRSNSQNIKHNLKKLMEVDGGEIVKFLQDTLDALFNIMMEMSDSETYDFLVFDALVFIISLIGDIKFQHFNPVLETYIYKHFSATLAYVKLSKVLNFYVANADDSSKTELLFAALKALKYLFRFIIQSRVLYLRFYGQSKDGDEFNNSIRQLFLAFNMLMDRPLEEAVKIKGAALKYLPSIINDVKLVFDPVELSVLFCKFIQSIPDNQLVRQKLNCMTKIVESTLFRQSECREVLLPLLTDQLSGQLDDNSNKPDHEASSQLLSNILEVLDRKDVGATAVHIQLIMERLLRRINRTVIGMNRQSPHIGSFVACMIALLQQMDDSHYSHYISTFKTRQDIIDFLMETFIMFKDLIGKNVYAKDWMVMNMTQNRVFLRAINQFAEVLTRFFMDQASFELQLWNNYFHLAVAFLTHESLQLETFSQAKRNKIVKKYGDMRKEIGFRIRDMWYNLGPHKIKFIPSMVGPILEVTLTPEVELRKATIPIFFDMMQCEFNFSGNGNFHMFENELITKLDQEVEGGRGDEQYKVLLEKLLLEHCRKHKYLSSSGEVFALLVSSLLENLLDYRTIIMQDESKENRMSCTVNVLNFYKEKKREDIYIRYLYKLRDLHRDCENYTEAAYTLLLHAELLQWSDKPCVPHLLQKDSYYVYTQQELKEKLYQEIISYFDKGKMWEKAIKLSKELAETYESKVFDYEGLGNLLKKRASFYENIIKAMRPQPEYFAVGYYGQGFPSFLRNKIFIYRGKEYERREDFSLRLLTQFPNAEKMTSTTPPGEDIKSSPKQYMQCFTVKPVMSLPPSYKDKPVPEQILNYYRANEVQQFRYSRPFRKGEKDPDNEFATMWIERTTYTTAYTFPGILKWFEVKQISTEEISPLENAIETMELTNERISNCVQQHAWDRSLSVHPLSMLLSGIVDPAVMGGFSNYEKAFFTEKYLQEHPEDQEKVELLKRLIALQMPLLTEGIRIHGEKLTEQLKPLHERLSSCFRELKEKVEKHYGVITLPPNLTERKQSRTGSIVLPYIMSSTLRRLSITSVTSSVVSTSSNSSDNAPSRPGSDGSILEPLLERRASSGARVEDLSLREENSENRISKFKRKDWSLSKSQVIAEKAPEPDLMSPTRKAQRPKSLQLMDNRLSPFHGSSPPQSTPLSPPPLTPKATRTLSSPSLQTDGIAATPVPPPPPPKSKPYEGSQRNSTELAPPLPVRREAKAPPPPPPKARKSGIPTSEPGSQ
# UniProt Q9BYM8: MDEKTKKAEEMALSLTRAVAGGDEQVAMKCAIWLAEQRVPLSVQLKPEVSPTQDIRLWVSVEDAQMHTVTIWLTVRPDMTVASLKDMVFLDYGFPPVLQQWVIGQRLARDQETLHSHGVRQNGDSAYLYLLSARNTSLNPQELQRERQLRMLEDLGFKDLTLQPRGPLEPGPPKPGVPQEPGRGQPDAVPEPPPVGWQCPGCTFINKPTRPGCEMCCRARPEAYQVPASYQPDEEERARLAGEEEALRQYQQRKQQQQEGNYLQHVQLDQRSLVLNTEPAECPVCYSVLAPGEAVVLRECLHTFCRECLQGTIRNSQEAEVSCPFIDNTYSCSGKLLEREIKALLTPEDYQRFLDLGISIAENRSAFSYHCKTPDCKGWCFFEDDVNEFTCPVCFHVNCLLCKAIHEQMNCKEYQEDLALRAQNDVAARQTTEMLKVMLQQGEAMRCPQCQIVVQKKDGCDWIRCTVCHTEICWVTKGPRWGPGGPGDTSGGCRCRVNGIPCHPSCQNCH
# UniProt Q9H0U4: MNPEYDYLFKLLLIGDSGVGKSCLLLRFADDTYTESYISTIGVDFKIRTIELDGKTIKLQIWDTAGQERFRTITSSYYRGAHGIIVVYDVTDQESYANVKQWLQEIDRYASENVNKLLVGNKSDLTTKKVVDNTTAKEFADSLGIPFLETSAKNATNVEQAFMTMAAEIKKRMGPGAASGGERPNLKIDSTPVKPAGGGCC
# UniProt Q9H2J4: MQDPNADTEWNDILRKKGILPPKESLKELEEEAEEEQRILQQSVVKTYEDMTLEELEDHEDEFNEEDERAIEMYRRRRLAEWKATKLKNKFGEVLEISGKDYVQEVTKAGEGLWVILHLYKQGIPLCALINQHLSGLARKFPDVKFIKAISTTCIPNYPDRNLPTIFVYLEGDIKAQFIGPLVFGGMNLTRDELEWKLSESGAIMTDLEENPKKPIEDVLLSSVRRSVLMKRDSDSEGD
# The list shows a part of the results. This is a noisy data set.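 Tm was set to 64 °C where no melting was found, and many curves are irregular.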
# Compound: CCc1cnccc1C(=O)Nc1cc2c(cc1F)NC(=O)CC2
# Assay: melting temperature shift (DMSO Tm minus MBE1-treated Tm) in cellular thermal proteome profiling; higher = less thermal stabilization by MBE1 (negative = stabilized by MBE1)
# Conditions: A375; MBE1 concentration: 100 nM
row,Target,melting temperature shift
1,ATP13A3 (UniProt Q9H7F0),-0.812 °C
2,ALG2 (UniProt Q9H553),0.0427 °C
3,COA1 (UniProt Q9GZY4),-0.597 °C
4,AAMDC (UniProt Q9H7C9),-0.417 °C
5,TRABD (UniProt Q9H4I3),-0.801 °C
6,SMARCAD1 (UniProt Q9H4L7),-1.07 °C
7,SENP6 (UniProt Q9GZR1),1.45 °C
8,UACA (UniProt Q9BZF9),-1.42 °C
9,TRIM5 (UniProt Q9C035),-0.899 °C
10,EHD1 (UniProt Q9H4M9),0.629 °C
11,TMX1 (UniProt Q9H3N1),-1.75 °C
12,PRKD2 (UniProt Q9BZL6),0.0753 °C
13,UniProt Q9H8G2,-1.31 °C
14,UniProt Q9C0H9,4.96 °C
15,MIS12 (UniProt Q9H081),0.354 °C
16,UniProt Q9H3Z4,-0.741 °C
17,FAM188A (UniProt Q9H8M7),-0.114 °C
18,OSBPL8 (UniProt Q9BZF1),-0.108 °C
19,PEAK1 (UniProt Q9H792),-0.143 °C

row,Target,melting temperature shift
1,PTPN23 (UniProt Q9H3S7),-0.63 °C
2,PARD6B (UniProt Q9BYG5),0.861 °C
3,WDR33 (UniProt Q9C0J8),0.0894 °C
4,DPH1 (UniProt Q9BZG8),-0.812 °C
5,KATNBL1 (UniProt Q9H079),0.287 °C
6,GTPBP4 (UniProt Q9BZE4),-0.545 °C
7,MRPL37 (UniProt Q9BZE1),0.397 °C
8,BOLA2 (UniProt Q9H3K6),-0.0402 °C
9,DOCK5 (UniProt Q9H7D0),0.379 °C
10,UniProt Q9BYM8,0.269 °C
11,WDR55 (UniProt Q9H6Y2),-0.624 °C
12,RAB1B (UniProt Q9H0U4),-1.37 °C
13,CCDC134 (UniProt Q9H6E4),-1.73 °C
14,PDCL3 (UniProt Q9H2J4),-0.794 °C
15,SRR (UniProt Q9GZT4),0.58 °C
16,UniProt Q9H7P9,-1.83 °C
17,UniProt Q9H1A3,0.08 °C
18,WDR61 (UniProt Q9GZS3),1.8 °C

# Same assay, conditions: A375; MBE1 concentration: 1 uM
row,Target,melting temperature shift
1,ATP13A3 (UniProt Q9H7F0),-0.0469 °C
2,ALG2 (UniProt Q9H553),0.403 °C
3,COA1 (UniProt Q9GZY4),1.1 °C
4,AAMDC (UniProt Q9H7C9),0.826 °C
5,TRABD (UniProt Q9H4I3),0.0183 °C
6,SMARCAD1 (UniProt Q9H4L7),-0.576 °C
7,SENP6 (UniProt Q9GZR1),0.788 °C
8,UACA (UniProt Q9BZF9),-0.429 °C
9,TRIM5 (UniProt Q9C035),-0.0612 °C
10,EHD1 (UniProt Q9H4M9),0.36 °C
11,TMX1 (UniProt Q9H3N1),-1.55 °C
12,PRKD2 (UniProt Q9BZL6),0.00941 °C
13,UniProt Q9H8G2,-0.243 °C
14,UniProt Q9C0H9,4.3 °C
15,MIS12 (UniProt Q9H081),0.812 °C
16,UniProt Q9H3Z4,-2.96 °C
17,FAM188A (UniProt Q9H8M7),0.469 °C
18,OSBPL8 (UniProt Q9BZF1),-0.193 °C
19,PEAK1 (UniProt Q9H792),0.748 °C

row,Target,melting temperature shift
1,PTPN23 (UniProt Q9H3S7),-0.729 °C
2,PARD6B (UniProt Q9BYG5),0.623 °C
3,WDR33 (UniProt Q9C0J8),-0.536 °C
4,DPH1 (UniProt Q9BZG8),1.25 °C
5,KATNBL1 (UniProt Q9H079),0.971 °C
6,GTPBP4 (UniProt Q9BZE4),-0.0192 °C
7,MRPL37 (UniProt Q9BZE1),0.721 °C
8,BOLA2 (UniProt Q9H3K6),-0.624 °C
9,DOCK5 (UniProt Q9H7D0),-0.0366 °C
10,UniProt Q9BYM8,-0.183 °C
11,WDR55 (UniProt Q9H6Y2),0.487 °C
12,RAB1B (UniProt Q9H0U4),-0.711 °C
13,CCDC134 (UniProt Q9H6E4),0.158 °C
14,PDCL3 (UniProt Q9H2J4),1.16 °C
15,SRR (UniProt Q9GZT4),0.653 °C
16,UniProt Q9H7P9,-2.42 °C
17,UniProt Q9H1A3,0.104 °C
18,WDR61 (UniProt Q9GZS3),1.96 °C
